Results taken from PMC7010731.
These are yes or no findings as the source states them, for the method shown. In cells and extracts the contact can be indirect. Some entries that bind do so weakly or less than the wild type.

T1: heme oxygenase-1 (HO-1) (human (endogenous in 293T)) (UniProt P09601)
T1 sequence: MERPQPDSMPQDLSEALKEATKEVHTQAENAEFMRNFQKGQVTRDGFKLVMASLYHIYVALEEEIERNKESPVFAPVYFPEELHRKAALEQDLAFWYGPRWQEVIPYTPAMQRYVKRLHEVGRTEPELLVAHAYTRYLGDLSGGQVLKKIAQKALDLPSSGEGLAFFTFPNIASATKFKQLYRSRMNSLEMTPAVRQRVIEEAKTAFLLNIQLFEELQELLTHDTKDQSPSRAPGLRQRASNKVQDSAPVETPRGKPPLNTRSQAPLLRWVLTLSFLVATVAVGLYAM

T2: seven in absentia homolog 2 (SIAH2) (human (endogenous in 293T)) (UniProt O43255)
T2 sequence: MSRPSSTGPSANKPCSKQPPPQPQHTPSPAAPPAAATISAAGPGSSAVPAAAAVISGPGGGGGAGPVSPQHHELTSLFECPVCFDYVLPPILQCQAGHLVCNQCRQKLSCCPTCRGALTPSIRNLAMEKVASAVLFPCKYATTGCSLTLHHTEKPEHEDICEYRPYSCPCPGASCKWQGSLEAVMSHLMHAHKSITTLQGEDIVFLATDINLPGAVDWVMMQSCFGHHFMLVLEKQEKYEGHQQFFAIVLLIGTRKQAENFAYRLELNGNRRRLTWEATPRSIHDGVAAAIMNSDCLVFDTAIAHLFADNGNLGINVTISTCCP


Key:
[1] = target: T1, heme oxygenase-1 (HO-1) (human (endogenous in 293T)); assay: co-IP; lysates of 293T cells (Pierce IP lysis buffer); tosylactivated dynabeads coupled with 1 µg antibody to SIAH2 or to HO-1, control IgGs; IP buffer with 5 µM lactacystin; washed three times with PBS, 0.1% Triton X-100; immunoblotting
[2] = target: T2, seven in absentia homolog 2 (SIAH2) (human (endogenous in 293T)); assay: as above

Row | binding [1] | binding [2] | Binder
1 | binds |  | seven in absentia homolog 2 (SIAH2) (protein, UniProt O43255 1-324) MSRPSSTGPSANKPCSKQPPPQPQHTPSPAAPPAAATISAAGPGSSAVPAAAAVISGPGGGGGAGPVSPQHHELTSLFECPVCFDYVLPPILQCQAGHLVCNQCRQKLSCCPTCRGALTPSIRNLAMEKVASAVLFPCKYATTGCSLTLHHTEKPEHEDICEYRPYSCPCPGASCKWQGSLEAVMSHLMHAHKSITTLQGEDIVFLATDINLPGAVDWVMMQSCFGHHFMLVLEKQEKYEGHQQFFAIVLLIGTRKQAENFAYRLELNGNRRRLTWEATPRSIHDGVAAAIMNSDCLVFDTAIAHLFADNGNLGINVTISTCCP
2 |  | binds | heme oxygenase-1 (HO-1) (protein, UniProt P09601 1-288) MERPQPDSMPQDLSEALKEATKEVHTQAENAEFMRNFQKGQVTRDGFKLVMASLYHIYVALEEEIERNKESPVFAPVYFPEELHRKAALEQDLAFWYGPRWQEVIPYTPAMQRYVKRLHEVGRTEPELLVAHAYTRYLGDLSGGQVLKKIAQKALDLPSSGEGLAFFTFPNIASATKFKQLYRSRMNSLEMTPAVRQRVIEEAKTAFLLNIQLFEELQELLTHDTKDQSPSRAPGLRQRASNKVQDSAPVETPRGKPPLNTRSQAPLLRWVLTLSFLVATVAVGLYAM
